Measured values reported in PubChem BioAssay AID248 (DTP/NCI, 2004).
The list is a part of this screen's results and no random one: it gathers tests that were run many times, whatever their T/C, doses with no T/C, and many T/C values between a quarter and a half above the control. Further doses and runs are listed elsewhere. T/C is the treated group as % of the vehicle group. Some doses have a count of surviving animals in place of a T/C: the source holds a T/C of zero for them, seemingly a mark for toxic or unscored doses. Counts of survivors are from the toxicity check (mostly the fifth day) where no day follows; animals may have died later. Schedule codes are those of the source, taken here to give the interval after Q, in days (D) or hours (H), and the number of doses after X. Some schedule codes hold Z or #, which are not explained here. For survival time, this PubChem deposit counts one and a half times the control or more as active, and values a quarter to a half above the control carry no call in these data; other NCI protocols may use other cut-offs. Some entries hold several experiments; the results are listed from low to high. Some T/C values are followed by the survivors on the day toxicity was checked, most often the fifth; where none is given, no animal had died by that day.

Test system: L1210 leukemia ip in BDF1 mice, survival T/C
Test: NCI In Vivo Anticancer Drug Screen. Data for tumor model L1210 Leukemia (intraperitoneal) in B6D2F1 (BDF1) mice
Conditions: higher T/C = longer survival

For Nc1ncn(C2OC(CO)C(O)C2O)c(=O)n1 (stereo not drawn), which survivor count (T/C endpoint: mean survival time, dose: 256.0 mg/kg/injection, schedule: Q## X008 (oral), vehicle: saline) is on record?
The survivor count was 3 of 10.

And the survivor count (T/C endpoint: mean survival time, dose: 384.0 mg/kg/injection, schedule: Q01DX001 (ip), vehicle: saline)?
The survivor count was 0 of 10.

And the survivor count (T/C endpoint: mean survival time, dose: 400.0 mg/kg/injection, schedule: Q01DX001 (ip), vehicle: other)?
Its survivor count is 0 of 4.

What about the T/C (T/C endpoint: mean survival time, dose: 512.0 mg/kg/injection, schedule: Q01DX001 (oral), vehicle: saline) of the same compound?
The T/C was 148 % of control.

And the T/C (T/C endpoint: median survival time, dose: 0.47 mg/kg/injection, schedule: Q01DX009 (ip), vehicle: saline, evaluated on day 5)?
Its T/C is 137 % of control.

What about the T/C (T/C endpoint: median survival time, dose: 0.47 mg/kg/injection, schedule: Q01DX009 (ip), vehicle: saline, evaluated on day 40) of the same compound?
The T/C was 127 % of control.

What about the T/C (T/C endpoint: median survival time, dose: 0.65 mg/kg/injection, schedule: Q01DX009 (ip), vehicle: saline, evaluated on day 5) of the same compound?
Its T/C is 176 and 183 % of control.

And the T/C (T/C endpoint: median survival time, dose: 0.65 mg/kg/injection, schedule: Q01DX009 (ip), vehicle: saline, evaluated on day 27)?
The T/C was 133 % of control.

What about the T/C (T/C endpoint: median survival time, dose: 0.65 mg/kg/injection, schedule: Q01DX009 (ip), vehicle: saline, evaluated on day 30) of the same compound?
The T/C was 187 % of control.

And the T/C (T/C endpoint: median survival time, dose: 0.65 mg/kg/injection, schedule: Q01DX009 (ip), vehicle: saline, evaluated on day 33)?
Its T/C is 166 % of control.

What about the T/C (T/C endpoint: median survival time, dose: 0.65 mg/kg/injection, schedule: Q01DX009 (ip), vehicle: saline, evaluated on day 34) of the same compound?
The T/C was 176 % of control.

And the T/C (T/C endpoint: median survival time, dose: 0.78 mg/kg/injection, schedule: Q01DX009 (ip), vehicle: saline)?
Its T/C is 145 % of control.

What about the T/C (T/C endpoint: median survival time, dose: 1.0 mg/kg/injection, schedule: Q01DX005 (ip), vehicle: saline) of the same compound?
The T/C was 141 % of control.

And the T/C (T/C endpoint: median survival time, dose: 1.08 mg/kg/injection, schedule: Q01DX009 (ip), vehicle: saline, evaluated on day 5)?
Its T/C is 208 % of control.

And the T/C (T/C endpoint: median survival time, dose: 1.08 mg/kg/injection, schedule: Q01DX009 (ip), vehicle: saline, evaluated on day 27)?
Its T/C is 183 % of control.

What about the T/C (T/C endpoint: median survival time, dose: 1.08 mg/kg/injection, schedule: Q01DX009 (ip), vehicle: saline, evaluated on day 33) of the same compound?
Its T/C is 177 % of control.

And the T/C (T/C endpoint: median survival time, dose: 1.08 mg/kg/injection, schedule: Q01DX009 (ip), vehicle: saline, evaluated on day 34)?
The T/C was 208 % of control.

What about the T/C (T/C endpoint: median survival time, dose: 1.25 mg/kg/injection, schedule: Q04DX003 (ip), vehicle: saline, evaluated on day 5) of the same compound?
Its T/C is 122 and 124 % of control.

What about the T/C (T/C endpoint: median survival time, dose: 1.25 mg/kg/injection, schedule: Q04DX003 (ip), vehicle: saline, evaluated on day 8) of the same compound?
Its T/C is 112 % of control [4 of 6 alive].

And the T/C (T/C endpoint: median survival time, dose: 1.25 mg/kg/injection, schedule: Q04DX003 (ip), vehicle: saline, evaluated on day 35)?
The T/C was 122 % of control.

And the T/C (T/C endpoint: median survival time, dose: 1.8 mg/kg/injection, schedule: Q01DX009 (ip), vehicle: saline, evaluated on day 5)?
Its T/C is 230 and 274 % of control.

And the T/C (T/C endpoint: median survival time, dose: 1.8 mg/kg/injection, schedule: Q01DX009 (ip), vehicle: saline, evaluated on day 27)?
Its T/C is 177 % of control.

What about the T/C (T/C endpoint: median survival time, dose: 1.8 mg/kg/injection, schedule: Q01DX009 (ip), vehicle: saline, evaluated on day 30) of the same compound?
Its T/C is 225 % of control.

And the T/C (T/C endpoint: median survival time, dose: 1.8 mg/kg/injection, schedule: Q01DX009 (ip), vehicle: saline, evaluated on day 33)?
The T/C was 233 % of control.

What about the T/C (T/C endpoint: median survival time, dose: 1.8 mg/kg/injection, schedule: Q01DX009 (ip), vehicle: saline, evaluated on day 34) of the same compound?
The T/C was 274 % of control.

What about the T/C (T/C endpoint: median survival time, dose: 2.0 mg/kg/injection, schedule: Q01DX005 (ip), vehicle: saline) of the same compound?
Its T/C is 126 % of control.

What about the T/C (T/C endpoint: median survival time, dose: 2.5 mg/kg/injection, schedule: Q04DX003 (ip), vehicle: saline, evaluated on day 5) of the same compound?
The T/C was 135, 141, 148 % of control.

And the T/C (T/C endpoint: median survival time, dose: 2.5 mg/kg/injection, schedule: Q04DX003 (ip), vehicle: saline, evaluated on day 8)?
The T/C was 120 % of control [4 of 6 alive].

And the T/C (T/C endpoint: median survival time, dose: 2.5 mg/kg/injection, schedule: Q04DX003 (ip), vehicle: saline, evaluated on day 35)?
Its T/C is 133 % of control.

What about the T/C (T/C endpoint: median survival time, dose: 2.5 mg/kg/injection, schedule: Q04DX003 (ip), vehicle: saline, evaluated on day 40) of the same compound?
Its T/C is 144 % of control.

What about the T/C (T/C endpoint: median survival time, dose: 3.0 mg/kg/injection, schedule: Q01DX009 (ip), vehicle: saline, evaluated on day 5) of the same compound?
The T/C was 112 and 197 % of control.

And the T/C (T/C endpoint: median survival time, dose: 3.0 mg/kg/injection, schedule: Q01DX009 (ip), vehicle: saline, evaluated on day 27)?
Its T/C is 250 % of control.

And the T/C (T/C endpoint: median survival time, dose: 3.0 mg/kg/injection, schedule: Q01DX009 (ip), vehicle: saline, evaluated on day 30)?
Its T/C is 187 % of control.

What about the T/C (T/C endpoint: median survival time, dose: 3.0 mg/kg/injection, schedule: Q01DX009 (ip), vehicle: saline, evaluated on day 33) of the same compound?
The T/C was 100, 130, 133 % of control.

And the T/C (T/C endpoint: median survival time, dose: 3.0 mg/kg/injection, schedule: Q01DX009 (ip), vehicle: saline, evaluated on day 34)?
Its T/C is 112 % of control.

And the T/C (T/C endpoint: median survival time, dose: 3.0 mg/kg/injection, schedule: Q04DX003 (ip), vehicle: saline, evaluated on day 5)?
The T/C was 143, 158, 163 % of control.

And the T/C (T/C endpoint: median survival time, dose: 3.0 mg/kg/injection, schedule: Q04DX003 (ip), vehicle: saline, evaluated on day 30)?
The T/C was 144 and 162 % of control.

What about the T/C (T/C endpoint: median survival time, dose: 3.0 mg/kg/injection, schedule: Q04DX003 (ip), vehicle: saline, evaluated on day 33) of the same compound?
The T/C was 145 and 150 % of control.

What about the T/C (T/C endpoint: median survival time, dose: 3.0 mg/kg/injection, schedule: Q04DX003 (ip), vehicle: saline, evaluated on day 60) of the same compound?
Its T/C is 170 % of control.

And the T/C (T/C endpoint: median survival time, dose: 4.0 mg/kg/injection, schedule: Q01DX005 (ip), vehicle: saline)?
The T/C was 144 % of control.

And the T/C (T/C endpoint: median survival time, dose: 5.0 mg/kg/injection, schedule: Q01DX009 (ip), vehicle: saline, evaluated on day 5)?
Its T/C is 106 and 143 % of control.

What about the T/C (T/C endpoint: median survival time, dose: 5.0 mg/kg/injection, schedule: Q01DX009 (ip), vehicle: saline, evaluated on day 30) of the same compound?
The T/C was 143 % of control.

And the T/C (T/C endpoint: median survival time, dose: 5.0 mg/kg/injection, schedule: Q01DX009 (ip), vehicle: saline, evaluated on day 34)?
The T/C was 106 % of control.
